In article PMC3750171:
Results are given in words; binding and its absence hold for the method and conditions named. Binding seen in cells or lysates may run through a third protein. Some results given as binding are weak or reduced against the parent protein; the word gives no strength.

Sequences of proteins named here, by UniProt entry; tags and fusion partners are left off. A change or cut given only in a name is not applied to a line headed by its entry. Residues count along the entry.
UniProt Q16584: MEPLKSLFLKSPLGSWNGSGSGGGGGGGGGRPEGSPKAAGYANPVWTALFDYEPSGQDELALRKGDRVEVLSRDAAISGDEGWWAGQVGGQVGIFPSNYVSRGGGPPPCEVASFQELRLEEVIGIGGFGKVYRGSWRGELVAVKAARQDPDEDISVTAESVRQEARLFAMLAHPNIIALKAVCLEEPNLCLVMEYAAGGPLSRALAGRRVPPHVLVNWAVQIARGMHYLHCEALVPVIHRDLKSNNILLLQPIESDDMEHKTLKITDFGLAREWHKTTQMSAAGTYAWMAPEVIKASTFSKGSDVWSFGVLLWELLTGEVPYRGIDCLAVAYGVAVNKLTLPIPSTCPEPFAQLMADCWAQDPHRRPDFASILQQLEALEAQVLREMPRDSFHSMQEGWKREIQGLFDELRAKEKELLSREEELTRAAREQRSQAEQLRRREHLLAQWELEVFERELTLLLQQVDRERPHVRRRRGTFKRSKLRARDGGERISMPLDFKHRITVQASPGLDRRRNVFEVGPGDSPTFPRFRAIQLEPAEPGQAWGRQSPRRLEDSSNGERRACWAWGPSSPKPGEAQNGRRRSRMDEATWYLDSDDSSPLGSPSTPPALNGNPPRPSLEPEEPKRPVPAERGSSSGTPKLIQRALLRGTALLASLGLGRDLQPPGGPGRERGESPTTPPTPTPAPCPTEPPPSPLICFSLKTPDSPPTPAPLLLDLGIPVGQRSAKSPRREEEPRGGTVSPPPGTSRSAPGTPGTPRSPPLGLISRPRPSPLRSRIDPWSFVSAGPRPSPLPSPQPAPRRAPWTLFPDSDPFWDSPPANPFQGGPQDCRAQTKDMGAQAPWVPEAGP
UniProt Q99IB8, residues 1977-2442: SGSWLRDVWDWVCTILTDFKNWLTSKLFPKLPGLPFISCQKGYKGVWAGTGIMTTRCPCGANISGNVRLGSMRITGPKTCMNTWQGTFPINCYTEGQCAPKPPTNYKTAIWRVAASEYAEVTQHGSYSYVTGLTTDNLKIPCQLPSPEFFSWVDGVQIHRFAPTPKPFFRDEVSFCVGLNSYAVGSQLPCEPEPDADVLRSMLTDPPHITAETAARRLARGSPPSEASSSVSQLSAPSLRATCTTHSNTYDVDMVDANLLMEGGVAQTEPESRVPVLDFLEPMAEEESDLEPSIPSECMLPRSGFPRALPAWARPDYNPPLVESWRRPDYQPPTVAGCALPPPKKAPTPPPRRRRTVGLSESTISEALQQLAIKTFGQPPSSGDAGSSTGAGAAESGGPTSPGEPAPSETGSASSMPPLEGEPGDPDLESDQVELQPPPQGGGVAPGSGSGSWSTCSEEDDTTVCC

How the values were obtained:
[1] = target: FLAG-tagged MLK3, K144E kinase-dead mutant (UniProt Q16584); assay: co-IP; Huh7 cells co-transfected with NS5A (wild type or PA2) and FLAG-MLK3 (wild type or K144E); lysis in 0.25% deoxycholic acid, 0.1% Triton X-100, 150 mM NaCl, 100 mM Tris/HCl pH 8.0; anti-FLAG M2 for 1 h at 4 °C, protein G Sepharose; Western blot for NS5A and MLK3
[2] = target: FLAG-tagged MLK3, wild type (UniProt Q16584); assay: as above
[3] = target: mixed lineage kinase 3 (MLK3), endogenous in Huh7 replicon cells (human (endogenous in Huh7)) (UniProt Q16584); assay: co-IP; lysates of Huh7 cells harbouring SGR-JFH1 immunoprecipitated with an anti-MLK3 monoclonal antibody; Western blot for MLK3 and NS5A; control IgG in parallel
[4] = target: One-STrEP-tagged NS5A, wild type, from the subgenomic replicon pSGR-JFH1-5A1ST (hepatitis C virus, genotype 2a isolate JFH-1) (UniProt Q99IB8); assay: pull-down; lysates of Huh7 replicon cells (untagged, One-STrEP-tagged NS5A wild type or PA2) passed over a STrEP-tactin Sepharose column; eluates Western blotted for NS5A and MLK3; densitometry

Substance: NS5A (genotype 2a JFH-1), wild type, expressed from a plasmid (from UniProt Q99IB8 1977-2442)
- binding [1]: no binding
- binding [2]: binds

Substance: NS5A expressed from the JFH1-derived subgenomic replicon (SGR-JFH1), untagged (from UniProt Q99IB8 1977-2442)
- binding [3]: binds

Substance: mixed lineage kinase 3 (MLK3), endogenous in Huh7 replicon cells (from UniProt Q16584 1-847)
- binding [4]: binds
